The values below are quoted from earlier work in patent US6919370B2, “Pharmaceutical formulations comprising paclitaxel, derivatives, and pharmaceutically acceptable salts thereof” (TransForm Pharmaceuticals, Inc., priority 2000, dated 2005).

On to `CC(=O)O[C@H]1C(=O)[C@@]2(C)[C@H]([C@H](OC(=O)c3ccccc3)[C@]3(O)C[C@H](OC(=O)[C@H](O)[C@@H](NC(=O)c4ccccc4)c4ccccc4)C(C)=C1C3(C)C)[C@]1(OC(C)=O)CO[C@@H]1C[C@@H]2O` [Paclitaxel, paclitaxel], for which the solubility in water result was “practically insoluble”.
